Measurements: patent publication US20240301062A1

Assays:
cyno CLDN6 (cyno) [1] = test: flow cytometry on CHOK1/cyno CLDN6 cells, MFI(PE)
cyno CLDN6 (cyno) [2] = test: flow cytometry, CHOK1/Cyno CLDN6-GFP cells
cyno CLDN6 (cyno) [3] = test: FACS, CHOK1-cyno CLDN6 cells

Binder	binding (cyno CLDN6 (cyno) [1])	binding (cyno CLDN6 (cyno) [2])	binding (cyno CLDN6 (cyno) [3])
BG87P-21 (antibody, V domains shown) VH: QVQLVQSGAEVKKPGASVKVSCKASGYSFTDYHINWVRQAPGQRLEWMGWIYPGSGYTKYNEKFKGRVTITRDTSASTAYMELSSLRSEDTAVYYCARSGIYHYVSSYYFDHWGKGTTVTVSS VL: DIQMTQSPSTLSASVGDRVTITCKASQDVGTAVAWYQQKPGKAPKLLIYWASTRHTGVPSRFSGSGSGTEFTLTISSLQPDDFATYYCQQYSSYTFGGGTKVEIK	binds		
BG87P-33 (antibody, V domains shown) VH: EVQLQESGGGLVQPGGSLRLSCAASGYSFTDYHINWVRQAPGKGLEWVSYIYPGSGHTKYNEKFKGRFTISRDTSKNTAYLQMNSLRAEDTAVYYCARSGIYHYVSSYYFDHWGQGTLVTVSS VL: DIQMTQSPSTLSASVGDRVTITCKASQDAGSAVAWYQQKPGKAPKLLIYWASTRHTGVPSRFSGSGSGTEFTLTISSLQPDDFATYYCQQYSSYTFGGGTKVEIK	binds		

Now from value to binder:

binding (cyno CLDN6 (cyno) [1])	binding (cyno CLDN6 (cyno) [2])	binding (cyno CLDN6 (cyno) [3])	Binder
binds			chimeric BG87P antibody (chBG87P) (antibody, V domains shown) VH: QIQLQQSGPELVKPGASVKISCKASGYSFTDYHINWVKQRPGQGLEWIGWIYPGSGYTKYNEKFKVKATLTVDTSSSTAYMHLTSLTSEDSAVYFCARSGIYHYVSSYYFDHWGQGTTLTVSS VL: DIVMTQSHTFMSTSVGDRVSITCKASQDVGTAVAWYQQKPGQSPKLLIYWASTRHTGVPDRFTGSGSGTDFTLTISNVQSEDLADYFCQQYSSYTFGGGTKLEIK
	binds		BG87P (mouse anti-CLDN6 antibody, hybridoma clone) (antibody, V domains shown) VH: QIQLQQSGPELVKPGASVKISCKASGYSFTDYHINWVKQRPGQGLEWIGWIYPGSGYTKYNEKFKVKATLTVDTSSSTAYMHLTSLTSEDSAVYFCARSGIYHYVSSYYFDHWGQGTTLTVSS VL: DIVMTQSHTFMSTSVGDRVSITCKASQDVGTAVAWYQQKPGQSPKLLIYWASTRHTGVPDRFTGSGSGTDFTLTISNVQSEDLADYFCQQYSSYTFGGGTKLEIK
binds		binds	BG87P-34 (antibody, V domains shown) VH: EVQLQESGGGLVQPGGSLRLSCAASGYSFSDYHINWVRQAPGKGLEWVGYIYPGSGHTKYNEKFKGRFTISRDTSSNTAYLQMNSLRAEDTAVYYCARSGIYHYVSSYYFDHWGQGTLVTVSS VL: DIQMTQSPSSLSASVGDRVTITCKASQDAGSAVAWYQQKPGKAPKLLIYWASTRHTGVPSRFSGSGSGTDFTLTISSLQPEDFATYYCQQYSSYTFGGGTKLEIK

Results are given in words; binding and its absence hold for the method and conditions named. Binding can be weak; no strength is given.
